Data taken from patent publication US20100120039A1, “METHODS AND COMPOSITIONS IN BREAST CANCER THERAPY RESISTANCE” (priority 2008, published 2010).
“Also recorded” adds a separate entry of the source. At least one compound was matched to its structure with a doubt left.

Legend:
[1] = tested on: K303R Arom 1 and Arom 2 cells; assay: Anchorage-independent soft agar growth assay; format: cell-based, human; conditions: LY294002 10 μM; PI-103 in K303R Arom 2
MCF-7 Arom 1 cells = assay: Anchorage-independent soft agar growth assay; format: cell-based, human; conditions: LY294002 10 μM; listed as LY
PI3K = assay: In vitro PI3K activity of p85 immunoprecipitates; format: biochemical, human; conditions: K303R Arom 1 cells, LY 10 μmol/L, 45 min

O=c1cc(N2CCOCC2)oc2c(-c3ccccc3)cccc12 [LY294002] was tested, and the soft agar proliferation [1] was “completely inhibited”, the soft agar growth (MCF-7 Arom 1 cells) was “limited effects; also recorded: slight reduction” and the “constitutively increased PI3K activity” value (PI3K) was “abrogated”.
